Reference: PubChem BioAssay AID540276 (National Center for Advancing Translational Sciences (NCATS), 2011)
Several values for one entry are separate records, joined by “and”; a condition that tells them apart may be missing. Equal entries are not always repeated. Among all 300,000 compounds or so, about 5,400 (1.8%) were called active. Inconclusive means that the source gave no clear call. Such entries were picked first, then a sample of the others. Calls follow the shape of the full dose curve; tested in HEK293 cells. Potencies of inconclusive entries are doubtful fits and often do not repeat.

test: qHTS for inhibitors of binding or entry into cells for Marburg Virus; details: Marburg virus pseudotyped entry inhibition, cell reporter; series mostly up to 37.8 µM
Potency is read from the fitted curve at half-maximal effect.

Row | SMILES | Potency
1 | Cc1ccc(-n2ncc(C(=O)N3CCN(C(=O)c4ccco4)CC3)c2-n2cccc2)cc1 | inconclusive: 1.78 µM [inhibitor, partial curve, poor fit]
2 | CCOc1ccc(-c2nnc(SCC(=O)N3CCOCC3)o2)cc1 | inconclusive: 35.5 µM [activator, single point]
3 | C=CCOC(=O)C1=C(C)NC(SC)=C(C#N)C1c1ccc(OCC)cc1 (stereo unspecified) | inconclusive: 1.12 µM [inhibitor, single point] and inconclusive: 28.2 µM [inhibitor, single point]
4 | O=C(Cc1ccc(F)cc1)N1CCN=C1SCc1ccc([N+](=O)[O-])cc1 | inconclusive: 14.1 µM [inhibitor, partial curve, poor fit]
5 | O=C(c1cccc(S(=O)(=O)N2CCCC2)c1)c1cccc(S(=O)(=O)N2CCCC2)c1 | inconclusive: 11.2 µM [inhibitor, partial curve]
6 | CCCN(CCC)CCNC(=O)c1cc2c(=O)oc3ccc(C)cc3c2s1 | inactive
7 | O=C(Nc1ccc(O)c2c(=O)cc(-c3cccc(Cl)c3)oc12)c1cccc(Cl)c1 | inconclusive: 0.396 µM [inhibitor, full curve, poor fit]
8 | COCCn1c(Cc2ccccc2)nnc1SCC(=O)NC1CCCCC1 | inconclusive: 3.98 µM [inhibitor, single point]
9 | CCOC(=O)c1nc(S(C)(=O)=O)ncc1N1CCOCC1 | inactive
10 | CC(CN1CCOCC1)OC(=O)Cc1ccc(Cl)cc1 (stereo unspecified) | inactive
11 | Oc1sc(C=Nc2ccc(F)cc2)c2ccccc12 | inactive
12 | O=[N+]([O-])c1c(NCCCO)cc(Sc2ccc(Cl)cc2)c2nonc12 | active: 11.2 µM
13 | CN1CCN(C(c2ccc(Cl)cc2)c2cc(Cl)c3cccnc3c2O)CC1 (stereo unspecified) | inconclusive: 11.2 µM [inhibitor, partial curve, poor fit]
14 | CC(C)CC(=O)Nc1ccc(OCC(=O)O)cc1 | inconclusive: 32.6 µM [activator, single point]
15 | CCc1ccccc1NC(=O)C(C#N)Cc1cccnc1 (stereo unspecified) | inconclusive: 32.6 µM [activator, single point]
16 | FC(F)(F)c1cccc(Nc2nc(N3CCCC3)nc(N3CCCC3)n2)c1 | inconclusive: 1.58 µM [inhibitor, partial curve, poor fit]
17 | CC/C(=N\NC(=O)c1c(C)nc2ccccn12)c1ccccc1 | inactive
18 | N#CC(=C1CCCC1)c1nc(-c2cc3ccccc3oc2=O)cs1 | inconclusive: 2.59 µM [activator, full curve]
19 | COC(=O)/C=C1\NCCNC1=O | inactive
20 | CCN(CC)C(=O)c1ccc(NC(=O)c2cc(S(=O)(=O)N3CCCCCC3)ccc2OC)cc1 | inactive
21 | CCOC(=O)N1CCN(CC(O)COCc2cc(OC)c(OC)c(OC)c2)CC1 (stereo unspecified) | inconclusive: 5.62 µM [activator, single point]
22 | CCCOc1ccc(NC(=O)CC2C(=O)N(CC)C(=S)N2Cc2cccs2)cc1 (stereo unspecified) | inconclusive: 29.1 µM [inhibitor, single point]
23 | CN(C)CCOC(=O)C12CC3CC(C1)CC(C(=O)OCCN(C)C)(C3)C2 | inactive

Looked up by structure from the entries so far:
Row | SMILES | Potency
6 | CCCN(CCC)CCNC(=O)c1cc2c(=O)oc3ccc(C)cc3c2s1 | inactive
23 | CN(C)CCOC(=O)C12CC3CC(C1)CC(C(=O)OCCN(C)C)(C3)C2 | inactive

(more compounds)

Row | SMILES | Potency
24 | CCN1C(=O)/C(=C\N(C(C)=O)c2ccccc2)OC1=S | inactive
25 | COCCNC(=S)N/N=C/c1c(C)[nH]c2ccccc12 | inconclusive: 6.31 µM [inhibitor, single point]
26 | COc1ccc(Cl)cc1NC(=O)/C=C/C(=O)O | inconclusive: 11.2 µM [activator, single point]
27 | CCSc1nc2c(cnn2-c2ccccc2)c(=O)n1N | inconclusive: 3.16 µM [activator, partial curve, poor fit]
28 | Cc1cccc(CCNC(=O)C2CCN(S(=O)(=O)c3ccccc3)CC2)c1 | inactive
29 | CCNC(=O)O/N=C(\C)c1sc(-c2ccccc2)nc1C | inconclusive: 5.01 µM [activator, full curve, poor fit]
30 | CCC(NC(=O)NNC(N)=S)(C(F)(F)F)C(F)(F)F | inconclusive: 35.5 µM [inhibitor, single point]
31 | CCOc1ccc(C(=O)Nc2ccc3c(c2)OCO3)cc1OCC | inactive
32 | COCC(=O)n1nc(-c2ccc(Cl)cc2)nc1NCc1ccc(F)cc1 | inconclusive: 29.1 µM [inhibitor, single point]
33 | O=C(COC(=O)C1CC1)NCc1ccccc1Cl | inactive
34 | O=C(COC(=O)Cc1ccccc1[N+](=O)[O-])NCc1ccc(F)cc1 | inactive
35 | Cc1ccccc1NC(=O)CSc1nccn1C | inactive
36 | O=C1CCN(C(=S)NCCc2ccccc2)CC1 | inconclusive: 1.26 µM [inhibitor, partial curve, poor fit]
37 | Cc1nc(C(F)(F)F)ccc1C(=O)Nc1ccccc1F | inconclusive: 1.26 µM [inhibitor, single point]
38 | CCC(=O)N1CCc2cc(Br)cc(S(=O)(=O)CCC(=O)NCC3CCCO3)c21 (stereo unspecified) | inconclusive: 2.82 µM [inhibitor, single point]
39 | COc1ccc(/C=N/N=C(\N)c2nonc2N)cc1OC | inconclusive: 5.62 µM [activator, single point]
40 | CCN(CCCNC(=O)CCc1nc(-c2ccc(C)cc2)no1)c1cccc(C)c1 | inconclusive: 35.5 µM [inhibitor, single point]
41 | CCCC(=O)N1c2nc(-c3ccco3)nn2C2(CCCCC2)[C@@H]2CCCC[C@@H]21 | inconclusive: 35.5 µM [inhibitor, single point]
42 | COc1cccc(NC(=O)Cn2c(=O)n(-c3ccc(C)cc3)c(=O)c3ccccc32)c1 | inconclusive: 35.5 µM [inhibitor, single point]
43 | O=C(N/N=C/c1cccs1)c1cc(-c2ccc(Cl)s2)[nH]n1 | inactive
44 | CCCCCn1c(CCCNC(=O)c2ccccc2)nc2ccccc21 | inconclusive: 35.5 µM [inhibitor, single point]
45 | Cc1ccccc1NC(=O)c1c(C)oc2ccc(O)c(CN(C)Cc3ccccc3)c12 | inactive
46 | CCOC(=O)c1[nH]ncc1CN1CCCC(C(=O)c2ccc(SC)cc2)C1 (stereo unspecified) | inactive
